According to PMC9223704:
Results are given in words; binding and its absence hold for the method and conditions named. In cells and extracts the contact can be indirect. Some results given as binding are weak or reduced against the parent protein; the word gives no strength.

Amino acid sequences for entries named in this document (tags omitted).
UniProt Q9Y6K9: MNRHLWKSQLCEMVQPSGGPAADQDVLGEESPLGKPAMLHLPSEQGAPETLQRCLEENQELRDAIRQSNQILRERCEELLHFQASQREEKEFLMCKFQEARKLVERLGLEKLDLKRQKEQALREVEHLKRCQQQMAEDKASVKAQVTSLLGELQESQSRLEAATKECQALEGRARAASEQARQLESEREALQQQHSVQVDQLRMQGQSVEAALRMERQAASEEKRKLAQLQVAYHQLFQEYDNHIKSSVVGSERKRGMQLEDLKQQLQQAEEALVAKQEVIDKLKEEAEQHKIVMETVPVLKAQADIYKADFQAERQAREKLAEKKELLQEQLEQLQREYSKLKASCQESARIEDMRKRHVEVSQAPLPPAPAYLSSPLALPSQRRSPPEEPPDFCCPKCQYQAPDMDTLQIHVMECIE

Target: wild-type NEMO-GFP (IKKγ/NF-κB essential modulator) (human) (UniProt Q9Y6K9)
Assay: co-IP; HEK293 cells transfected with GFP-tagged wild-type or S8,17,31A NEMO; lysates of TNFα-stimulated (10 ng/mL) cells immunoprecipitated with anti-GFP (GFP Isolation Kit, Miltenyi), immunoblotted with anti-NEMO, anti-IKKα and anti-Vps4A

binding: binds
B1: AAA-ATPase Vps4A (protein, UniProt Q9UN37 1-437)
chain: MTTSTLQKAIDLVTKATEEDKAKNYEEALRLYQHAVEYFLHAIKYEAHSDKAKESIRAKCVQYLDRAEKLKDYLRSKEKHGKKPVKENQSEGKGSDSDSEGDNPEKKKLQEQLMGAVVMEKPNIRWNDVAGLEGAKEALKEAVILPIKFPHLFTGKRTPWRGILLFGPPGTGKSYLAKAVATEANNSTFFSVSSSDLMSKWLGESEKLVKNLFELARQHKPSIIFIDEVDSLCGSRNENESEAARRIKTEFLVQMQGVGNNNDGTLVLGATNIPWVLDSAIRRRFEKRIYIPLPEEAARAQMFRLHLGSTPHNLTDANIHELARKTEGYSGADISIIVRDSLMQPVRKVQSATHFKKVCGPSRTNPSMMIDDLLTPCSPGDPGAMEMTWMDVPGDKLLEPVVCMSDMLRSLATTRPTVNADDLLKVKKFSEDFGQES
